According to paper PMC11321679:
A weaker result is weaker than the reference pair of the same experiment. The exact form of at least one protein or probe is not confirmed.

Tested on: human alpha-thrombin (human)
Experiment: thrombin activity inhibition (light scattering)
Settings: Thrombin 0.75 U/mL preincubated with aptamer, fibrinogen 1.25 mg/mL, scattering at 650 nm; commercial protein

Sequence	binding result
AAAAAAAAAAAAAAAAAAAAGGTTGGTGTGGTTGG / TTTTTTTTTTTTTTTTTTTTTCAGTGGGGTTGGACGGGATGGTGCCTGA [HD1(20A)-HD22(20T)]	binds more weakly
AGTCCGTGGTAGGGCAGGTTGGGGTGACTAAAAAAAAAAAAAAAAAAAA / GGTTGGTGTGGTTGGTTTTTTTTTTTTTTTTTTTT [HD22(20A)-HD1(20T)]	binds more weakly
